Reference: patent publication US20180086836A1
No constants are given. Whether binding was seen depends on the method and setting. Some entries that bind do so weakly or less than the wild type.

T1: human CCR6 (human) (UniProt P51684)
T1 sequence: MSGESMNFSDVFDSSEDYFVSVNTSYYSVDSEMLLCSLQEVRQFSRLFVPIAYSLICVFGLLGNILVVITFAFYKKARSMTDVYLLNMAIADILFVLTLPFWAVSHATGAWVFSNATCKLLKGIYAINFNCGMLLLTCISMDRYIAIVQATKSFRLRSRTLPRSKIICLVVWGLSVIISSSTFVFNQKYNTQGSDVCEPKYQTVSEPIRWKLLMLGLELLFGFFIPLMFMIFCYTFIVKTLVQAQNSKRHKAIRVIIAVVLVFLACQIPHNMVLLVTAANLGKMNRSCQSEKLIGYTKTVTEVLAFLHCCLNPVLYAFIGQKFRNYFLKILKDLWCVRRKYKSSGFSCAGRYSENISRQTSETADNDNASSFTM

B1: chimeric 4H11 antibody (antibody, human IgG1, kappa, V domains shown)
VH: EVKLVESGGGLVQPGGSLKLSCATSGFSFSDYYMYWIRQTPEKRLEWVAYITNGGITYYPDTVKGRFTISRDNAKNTLYLQMSRLRSEDTAMYYCTSPLRGAWFAYWGQGTLVTVSS
VL: DVIMTQSPLSLPVSLGDQASISCRSSQSIVHSNGNTYLEWYLQKPGQSPKLLIYKVSNRFSGVPDRFSGSGSGTDFTLKISRVEAEDLGLYYCFQGSHVPLTFGAGTKLEIKR
B2: VH1/VL1 antibody (antibody, human IgG1, kappa, V domains shown)
VH: EVQLVESGGGLVQPGGSLRLSCATSGFSFSDYYMYWVRQAPGKGLEWVAYITNGGITYYPDTVKGRFTISRDNSKNTLYLQMNSLRAEDTAVYYCTSPLRGAWFAYWGQGTLVTVSS
VL: DVVMTQSPLSLPVTLGQPASISCRSSQSIVHSNGNTYLEWYQQRPGQSPRLLIYKVSNRFSGVPDRFSGSGSGTDFTLKISRVEAEDVGVYYCFQGSHVPLTFGQGTKLEIKR
B3: H2/L2 humanized anti human CCR6 antibody (antibody, human IgG1, kappa, V domains shown)
VH: EVQLVESGGGLVQPGGSLRLSCAASGFSFSDYYMYWVRQAPGKGLEWVAYITNGGITYYPDTVKGRFTISRDNSKNTLYLQMNSLRAEDTAVYYCTSPLRGAWFAYWGQGTLVTVSS
VL: DVVMTQSPLSLPVTLGQPASISCRSSQSIVHSNGNTYLEWFQQRPGQSPRLLIYKVSNRFSGVPDRFSGSGSGTDFTLKISRVEAEDVGVYYCFQGSHVPLTFGQGTKLEIKR
B4: 4H11 VH5/VL1 IgG1 antibody (antibody, V domains shown)
VH: EVQLVESGGGLVQPGGSLRLSCAASGFSFSDYYMYWVRQAPGKGLEWVSYITNGGITYYPDSVKGRFTISRDNSKNTLYLQMNSLRAEDTAVYYCTSPLRGAWFAYWGQGTLVTVSS
VL: DVVMTQSPLSLPVTLGQPASISCRSSQSIVHSNGNTYLEWYQQRPGQSPRLLIYKVSNRFSGVPDRFSGSGSGTDFTLKISRVEAEDVGVYYCFQGSHVPLTFGQGTKLEIKR

How the values were obtained:
[1] = target: T1, human CCR6 (human); assay: flow cytometry on human PBMCs, 10 µg/mL
[2] = target: T1, human CCR6 (human); assay: flow cytometry on human PBMCs, 10 µg/mL, anti-human IgG-PE
[3] = target: T1, human CCR6 (human); assay: cell ELISA on CHO cells transfected with human CCR6, anti-human Ig Fc-HRP
[4] = target: T1, human CCR6 (human); assay: flow cytometry on transfected cells (Human Nter, Human loops 1-3), 10 µg/ml, PE-labelled secondary antibody
[5] = target: T1, human CCR6 (human); assay: Cell ELISA on CHO cells expressing human CCR6
[6] = target: T1, human CCR6 (human); assay: flow cytometry on BAF cells transfected with human CCR6, 3 to 0.01 µg/ml

Row | Binder | binding [1] | binding [2] | binding [3] | binding [4] | binding [5] | binding [6]
1 | B1 | binds | binds | binds | binds |  | 
2 | B2 |  |  | binds |  | binds | 
3 | B3 |  |  | binds |  |  | 
4 | B4 |  |  | binds |  | binds | binds
